These are yes or no findings as the source states them, for the method shown. Binding seen in cells or lysates may run through a third protein. Some binding calls cover weakened binding; strength is not graded here. For some assays here: Sequences can lack the tags named with a protein.

Sequences of proteins named here, by UniProt entry; tags and fusion partners are left off. A change or cut given only in a name is not applied to a line headed by its entry. A line that says so, or that is headed by a name, gives the form on record, which may keep a tag or linker. Residues count along the entry.
UniProt P10909: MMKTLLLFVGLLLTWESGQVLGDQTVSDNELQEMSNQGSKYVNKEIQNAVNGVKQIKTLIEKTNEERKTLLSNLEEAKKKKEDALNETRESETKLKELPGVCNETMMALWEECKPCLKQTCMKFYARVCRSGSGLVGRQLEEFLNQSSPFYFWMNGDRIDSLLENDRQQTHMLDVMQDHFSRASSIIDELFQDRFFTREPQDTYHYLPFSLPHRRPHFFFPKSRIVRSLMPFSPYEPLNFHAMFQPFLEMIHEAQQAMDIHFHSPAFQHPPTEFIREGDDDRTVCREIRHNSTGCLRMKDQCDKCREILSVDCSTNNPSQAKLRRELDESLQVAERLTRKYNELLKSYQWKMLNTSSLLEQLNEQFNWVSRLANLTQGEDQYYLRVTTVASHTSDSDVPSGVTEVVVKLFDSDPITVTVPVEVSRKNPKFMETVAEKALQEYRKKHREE
clusterin, endogenous in human brain (human (endogenous in brain tissue)): residues 23-449 of P10909
intracellular human clusterin, Flag-tagged (iCLU): residues 34-449 of P10909

Experiment [1] deals with T1, BIN1 isoform 1, endogenous in human brain (human (endogenous in brain tissue)) (UniProt O00499).
T1 sequence: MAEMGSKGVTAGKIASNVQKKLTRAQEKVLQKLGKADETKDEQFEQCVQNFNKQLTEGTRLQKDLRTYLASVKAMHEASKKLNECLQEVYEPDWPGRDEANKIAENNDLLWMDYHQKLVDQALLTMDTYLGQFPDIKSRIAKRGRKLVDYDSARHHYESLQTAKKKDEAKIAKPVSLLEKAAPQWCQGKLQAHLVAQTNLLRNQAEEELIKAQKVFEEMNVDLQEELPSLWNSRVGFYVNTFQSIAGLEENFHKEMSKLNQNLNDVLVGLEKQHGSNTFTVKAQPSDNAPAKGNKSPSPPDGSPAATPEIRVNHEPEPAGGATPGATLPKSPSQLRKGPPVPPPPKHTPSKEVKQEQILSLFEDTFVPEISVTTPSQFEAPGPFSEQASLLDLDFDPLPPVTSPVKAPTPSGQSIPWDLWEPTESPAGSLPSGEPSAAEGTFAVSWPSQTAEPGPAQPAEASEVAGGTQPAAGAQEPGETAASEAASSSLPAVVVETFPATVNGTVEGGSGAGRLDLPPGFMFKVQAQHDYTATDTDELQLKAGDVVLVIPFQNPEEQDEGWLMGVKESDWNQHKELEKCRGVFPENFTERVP
Kind of experiment: co-IP; human brain lysates from AD (n = 3) and control (n = 3) subjects; immunoprecipitated with anti-CLU, anti-BIN1 or anti-Tau antibody on protein G dynabeads; Western blot.

The target in experiment [2] is T2, human BIN1 isoform 1, myc-tagged (human) (UniProt O00499).
T2 sequence: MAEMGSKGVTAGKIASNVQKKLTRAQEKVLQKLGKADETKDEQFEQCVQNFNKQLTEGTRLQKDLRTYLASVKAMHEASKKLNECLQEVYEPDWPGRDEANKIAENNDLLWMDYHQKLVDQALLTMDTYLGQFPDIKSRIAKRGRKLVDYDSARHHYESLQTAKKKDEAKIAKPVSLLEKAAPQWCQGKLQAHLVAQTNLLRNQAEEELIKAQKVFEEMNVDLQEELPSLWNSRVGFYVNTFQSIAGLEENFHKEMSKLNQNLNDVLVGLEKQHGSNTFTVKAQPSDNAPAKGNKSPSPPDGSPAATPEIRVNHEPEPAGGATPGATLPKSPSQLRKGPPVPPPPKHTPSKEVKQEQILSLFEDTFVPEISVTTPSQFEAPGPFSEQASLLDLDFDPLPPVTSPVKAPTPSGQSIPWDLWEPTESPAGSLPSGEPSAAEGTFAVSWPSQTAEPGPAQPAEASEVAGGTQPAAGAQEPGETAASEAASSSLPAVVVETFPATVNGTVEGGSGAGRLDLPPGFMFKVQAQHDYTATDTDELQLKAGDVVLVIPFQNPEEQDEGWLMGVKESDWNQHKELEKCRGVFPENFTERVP
Kind of experiment: co-IP; iTau-HEK cells co-transfected with iCLU and BIN1.1, PBS- or doxycycline-treated; lysates immunoprecipitated with anti-Tau HT7, anti-BIN1 99D or anti-CLU C18 antibody; Western blot. (In general: Immunoblotting shows a protein as a band on a membrane.)

Experiment [3] addresses T2, human BIN1 isoform 1, myc-tagged (human). Kind of experiment: co-IP; iTau-HEK cells co-transfected with iCLU and each of the ten myc-tagged BIN1 isoforms; immunoprecipitating antibodies not given.
Experiment [4] concerns the target intracellular human clusterin, Flag-tagged (iCLU) (human) (UniProt P10909). Kind of experiment: co-IP; iTau-HEK cells co-transfected with iCLU and BIN1.1, PBS- or doxycycline-treated; lysates immunoprecipitated with anti-Tau HT7, anti-BIN1 99D or anti-CLU C18 antibody; Western blot.
Experiment [5] addresses clusterin, endogenous in human brain (human (endogenous in brain tissue)) (UniProt P10909). Kind of experiment: co-IP; human brain lysates from AD (n = 3) and control (n = 3) subjects; immunoprecipitated with anti-CLU, anti-BIN1 or anti-Tau antibody on protein G dynabeads; Western blot.

Take “clusterin, endogenous in human brain (from UniProt P10909-1 23-449)”: in experiment [1], the binding entry was “binds”. Consider “intracellular human clusterin, Flag-tagged (iCLU) (from UniProt P10909-2 86-501) (domain or fragment)”, for which the binding result in experiment [2] and in experiment [3] was “binds” each time.

B1: human BIN1 isoform 1, myc-tagged (protein, UniProt O00499 1-593)
chain: MAEMGSKGVTAGKIASNVQKKLTRAQEKVLQKLGKADETKDEQFEQCVQNFNKQLTEGTRLQKDLRTYLASVKAMHEASKKLNECLQEVYEPDWPGRDEANKIAENNDLLWMDYHQKLVDQALLTMDTYLGQFPDIKSRIAKRGRKLVDYDSARHHYESLQTAKKKDEAKIAKPVSLLEKAAPQWCQGKLQAHLVAQTNLLRNQAEEELIKAQKVFEEMNVDLQEELPSLWNSRVGFYVNTFQSIAGLEENFHKEMSKLNQNLNDVLVGLEKQHGSNTFTVKAQPSDNAPAKGNKSPSPPDGSPAATPEIRVNHEPEPAGGATPGATLPKSPSQLRKGPPVPPPPKHTPSKEVKQEQILSLFEDTFVPEISVTTPSQFEAPGPFSEQASLLDLDFDPLPPVTSPVKAPTPSGQSIPWDLWEPTESPAGSLPSGEPSAAEGTFAVSWPSQTAEPGPAQPAEASEVAGGTQPAAGAQEPGETAASEAASSSLPAVVVETFPATVNGTVEGGSGAGRLDLPPGFMFKVQAQHDYTATDTDELQLKAGDVVLVIPFQNPEEQDEGWLMGVKESDWNQHKELEKCRGVFPENFTERVP
Regarding B1, the binding entry in experiment [4] is given as “binds”.

B2: BIN1 isoform 1, endogenous in human brain (protein, UniProt O00499 1-593)
chain: MAEMGSKGVTAGKIASNVQKKLTRAQEKVLQKLGKADETKDEQFEQCVQNFNKQLTEGTRLQKDLRTYLASVKAMHEASKKLNECLQEVYEPDWPGRDEANKIAENNDLLWMDYHQKLVDQALLTMDTYLGQFPDIKSRIAKRGRKLVDYDSARHHYESLQTAKKKDEAKIAKPVSLLEKAAPQWCQGKLQAHLVAQTNLLRNQAEEELIKAQKVFEEMNVDLQEELPSLWNSRVGFYVNTFQSIAGLEENFHKEMSKLNQNLNDVLVGLEKQHGSNTFTVKAQPSDNAPAKGNKSPSPPDGSPAATPEIRVNHEPEPAGGATPGATLPKSPSQLRKGPPVPPPPKHTPSKEVKQEQILSLFEDTFVPEISVTTPSQFEAPGPFSEQASLLDLDFDPLPPVTSPVKAPTPSGQSIPWDLWEPTESPAGSLPSGEPSAAEGTFAVSWPSQTAEPGPAQPAEASEVAGGTQPAAGAQEPGETAASEAASSSLPAVVVETFPATVNGTVEGGSGAGRLDLPPGFMFKVQAQHDYTATDTDELQLKAGDVVLVIPFQNPEEQDEGWLMGVKESDWNQHKELEKCRGVFPENFTERVP
In the case of B2, the binding result in experiment [5] is “binds”.

Values taken from article PMC4106906.
